Values are the deposited “Percent Effect”, in %.
The record does not define 0% and 100%; most values in the screen are far below 50% and negative numbers occur (in some assays of this library far below -100).
The compounds are a random part of those screened.
A dash means the value is not listed here; it may have been measured.

A: 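Assay on Mycobacterium tuberculosis, filed only as a heat shock assay from Cornell; the read-out is not stated. The concentration is filed as 10 mM, unlikely as a test dose, so the dose is not known. The record gives no direction; compounds that gave an IC50 in retests scored well above the rest, so higher reads as stronger inhibition. Of about 69,000 compounds tested this way, about 930 (1.4%) reached 50% or more in at least one test.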
B: 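Whole-cell assay for inhibitors of Mycobacterium tuberculosis growth, labelled Cornell in the record; the read-out is not stated. The concentration is filed as 10 mM, unlikely as a test dose, so the dose is not known. The record gives no direction; compounds strong in two other growth screens of this library score well above the rest, so higher reads as stronger inhibition. Of about 53,000 compounds tested this way, about 900 (1.7%) reached 50% or more in at least one test.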

compound	A	B
Cc1csc(C(=O)NCCN2CCC(c3cccs3)CC2)c1	-10.4	12.45
CN(C)c1cccc(C2CCN(C3COCC3O)CC2)n1 (stereo not drawn)	-14.68	8.53
Cc1cc(C)n(CCC(=O)N2CCCC(n3cncn3)C2)n1 (stereo not drawn)	-6.353	-
CC1(C)CN(C(CNC2=NCCN2)c2ccc(Cl)cc2)CCO1.I (stereo not drawn)	-3.163	30.2
COCCNC(=O)c1cc(C2CC2)nc2onc(C3CCNC3)c12 (stereo not drawn)	-40.19	-
CCCC(=O)Nc1sc(C(=O)OCC)c(C)c1C#N	0.2865	1.84
CC(=O)N1CC2(CCNCC2)c2cc(C)ccc21	-11.08	-24.62
Cc1n[nH]c(CCC(=O)N2CCOC(Cc3ccc(F)cc3)C2)c1C (stereo not drawn)	-12.95	-4.923
N#Cc1ccc(CNCCS(=O)(=O)N2CCc3ccccc32)cc1	-12.23	-
OC(CNC1CCOCC1)c1ccc(Cl)c(F)c1 (stereo not drawn)	-12.52	-
CCn1nc(C)cc1C(=O)N1CCCN(CCCc2ccccc2)CC1	-23.7	16.06
CN(CC1CCCO1)C1CCN(CCc2ccccn2)CC1 (stereo not drawn)	2.318	3.469
O=C(O)C(F)(F)F.O=C(O)C(F)(F)F.[H][C@@]12COC[C@]1([H])[C@@H](OCCN(C)C)CN2Cc1ccc2c(c1)OCO2	-27.66	21.6
COc1cccc(CN(C)C(C)C(=O)Nc2nc(C)c(C)s2)c1 (stereo not drawn)	-0.1731	11.12
CNC(=O)c1ccc(NC(=O)NC(C)c2cc(C)oc2C)cc1 (stereo not drawn)	-19.18	-11
CCOC(=O)CNC(=O)c1cc2n(n1)CCCO2	-3.969	15.5
CCOc1ccccc1C(CC(=O)Nc1ccccn1)NC(C)=O (stereo not drawn)	8.073	-
O=C(O)C(F)(F)F.[H][C@]12CN(Cc3ccc(C)cc3)C[C@@]1([H])S(=O)(=O)CC[C@@H]2C(=O)NCC1CC1	-32.42	-
Cc1ccsc1CN(Cc1cccnc1)C1CC(C)(C)NC(C)(C)C1.O=C(O)CC(O)(CC(=O)O)C(=O)O	-32.2	-
Cc1ccc(NC2CCN(C(=O)c3ccc(F)c(C)c3)CC2)nn1	-6.623	-
O=C(CC(F)(F)F)NCC(O)c1ccc2ccccc2c1 (stereo not drawn)	-2.318	-
Cc1nc(C2CCCNC2)cc(N(Cc2c(C)nn(C)c2C)C2CC2)n1 (stereo not drawn)	-0.3449	-50.91
CCN(CC1CCCCO1)C(=O)CCNC(=O)c1ccccc1F (stereo not drawn)	21.44	-33.42
Nc1nc2c(c(NCc3ccc(C(=O)N4CCCC4)cc3)n1)CCCC2	13.29	10.24
[H][C@]12CC[C@]([H])(CN(CC(=O)Nc3ccn(C)n3)C1)N(CCOC)C2	-13.49	13.86
CN(C)S(=O)(=O)c1csc(C(=O)N2CCC(C(N)=O)CC2)c1	11.39	-7.181
CC(C)(C)C(=O)NCCCn1cncn1	3.684	-
COc1ccc(F)cc1-n1cnc(CCNC(C)=O)c1	-7.886	-11.42
Cn1c(CN2CCOCC2)cc(=O)c(O)c1CN1CCCC1	4.425	2.622
CC(C)COC(=O)N1CCN(C(=O)c2ccc3nccn3c2)CC1	-34.75	14.65
O=C(O)C(F)(F)F.O=C(O)C(F)(F)F.[H][C@@]12C[C@@H](Oc3cncnc3)CN1CCN(Cc1csc(C)n1)C2	-7.151	1.792
O=C(O)C(F)(F)F.O=C(O)C(F)(F)F.c1cncc(CN2CCc3ncnc(C4CCOC4)c3CC2)c1 (stereo not drawn)	-9.628	-
CCC(Cn1ccnc1)n1cnc2c(C)csc2c1=O (stereo not drawn)	2.514	8.475
OCCN1CCCCC1C1OCCO1 (stereo not drawn)	-3.074	-1.739
CC(=O)N1CCN(C(=O)CNc2ccc3ncsc3c2)CC1	-14.04	-4.583
c1cc(-c2nnc(C3CCCN(CC4CCCCC4)C3)o2)ccn1 (stereo not drawn)	11.57	-1.931
CCN1CC2(CCN(C(=O)C(C)Oc3ccc(F)cc3Cl)CC2)CC1=O (stereo not drawn)	-17.86	-18.76
Cc1cc(CN(C)C(=O)NC2CCN(Cc3ccccc3)C2)no1 (stereo not drawn)	1.045	-
CN(C)CCOCC1CN(Cc2cccc(F)c2)Cc2nccn2C1.O=C(O)C(F)(F)F.O=C(O)C(F)(F)F (stereo not drawn)	-23.51	4.342
CN(Cc1ccc(Br)o1)C(=O)Nc1cccnc1	12.52	-9.733
CN1N=C(C(=O)N2CCN(c3ncccn3)CC2)CCC1=O	23.96	5.459
Cc1cnn(CCCNC(=O)NC2CCN(CC(F)(F)F)C2=O)c1 (stereo not drawn)	-2.734	-
N#Cc1c(F)cccc1NCCCOCC1CCOCC1	0.5759	-
Cn1c(CO[C@H]2CN(S(C)(=O)=O)C[C@H]2F)nc2ccccc21	-15.67	-
O=C(Nc1ccc(F)c(F)c1)N1CCC2(CCC(=O)N(C3CC3)C2)CC1	-6.361	14.17
Cc1ccc(NC2CCN(C(=O)COCC3CC3)CC2)nn1	-15.21	-35.46
O=C(O)C(F)(F)F.[H][C@@]12OCCC[C@]1([H])N(C(=O)c1cccn1C)C[C@H]2OCc1ccncc1	-7.558	-14.01
O=C(Nc1cc2c(cc1Br)OCCO2)NC1CCS(=O)(=O)C1 (stereo not drawn)	-1.274	-38.88
CN(CCn1cccn1)S(=O)(=O)c1ccc(C#N)cc1	6.2	-24.23
[H][C@@]12CCN(C(=O)C(C)(C)C)[C@]1([H])C(=O)N(c1ccc(F)cc1)C(=O)N2	6.461	-
NC(=O)C1CCN(C(=O)CCSCc2ccccc2)CC1	-14.67	29.09
CCC(C)(CC)NC(=O)COc1nn(C)c2nc(C)cc(C)c12	-13.51	-
[H][C@@]12COC[C@]1(CNS(C)(=O)=O)CN(C(=O)N1CCCC1)C2	48.12	-23.96
CC(O)CN1CCC(CNCc2ccc(OC(F)(F)F)cc2)CC1 (stereo not drawn)	-36.39	-
C[C@H](NS(C)(=O)=O)C(=O)NCc1cc(-c2ccco2)n(CC(F)(F)F)n1	-0.166	-1.854
Cc1cc(C2CCCN2CCC(=O)N2CCc3sccc3C2)no1 (stereo not drawn)	10.56	-
[H][C@]12CN(c3nccs3)CC[C@@]1(O)CCN(S(=O)(=O)N(C)C)C2	-4.278	-
Cc1ccc(C(=O)NCc2ccc(N3CCNC(=O)C3)c(F)c2)cc1	-15.62	-1.433
c1ccc(-c2nc(CN3CCOC(Cn4cccn4)C3)cs2)cc1 (stereo not drawn)	6.965	5.267
CCn1cnnc1CNC(=O)N1CCC(Cc2cccnc2)CC1	-15.09	-
NC(=O)CN(Cc1ccc(Br)cc1)C(=O)c1ccncc1	-1.626	-7.967
CCn1c(C)nnc1CN(C)C1CCN(Cc2ccon2)C1 (stereo not drawn)	8.404	-
CN1CCC(c2cncc(C(=O)NCc3ccc(F)cc3)n2)CC1	-2.824	8.156
COc1cccc(COCC(=O)NC2CCN(CC(N)=O)CC2)c1	2.349	-
O=C(CCC(F)(F)F)N1CCCC(c2ncc[nH]2)C1 (stereo not drawn)	-3.065	1.027
Cc1cc(CNC(=O)CN2CCCC(Cn3cncn3)C2)ccc1F (stereo not drawn)	-15.09	-12.91
CCc1nc(C2CCCN2Cc2noc(Cc3ccccc3)n2)no1 (stereo not drawn)	22.55	3.149
C[C@@H]1CN(C2(C(=O)N3CCCCCC3)Cc3ccccc3C2)C[C@H](C)O1	6.184	0.7453
Cc1cc(C(=O)NCCN2CCCC(C)C2)nn1C (stereo not drawn)	14.39	-69.59
O=C(O)C(F)(F)F.[H][C@@]12CN(C(=O)c3cnccn3)C[C@]1([H])C(=O)N(Cc1cccc(C)n1)C2	-21.43	-1.828
Cl.O=C1NCCCCC1NCc1csc(-c2ccccn2)n1 (stereo not drawn)	24.26	19.48
Cc1cnn(CCNCc2csc(-c3cccs3)n2)c1	25.75	-
CCN(Cc1ccoc1)C(=O)Nc1ccccc1CN(C)C(C)=O	-11.65	-
Cc1cc2c(c(-c3cnccn3)c1)OC(CN)C2 (stereo not drawn)	9.165	36.33
CNS(=O)(=O)c1ccc(F)c(C(=O)NCc2ccnc(OC)c2)c1	-8.001	-40.14
CNC1CCN(C2CCN(c3ccc(-c4ccco4)cc3)CC2)CC1	-16.01	3.564
CS(=O)(=O)N1CCOCC2(CN(Cc3ccco3)CCO2)C1.O=C(O)C(F)(F)F (stereo not drawn)	-23.79	36.94
COCCNC(=O)CN1CCC(N2CCN(C)C2=O)CC1	2.165	-
COc1ccc(OC)c(-c2nc(CN(C)Cc3nncn3C)c(C)o2)c1	-10.82	-55.47
CN1CCN(C(=O)Cc2ccc(S(=O)(=O)C(F)F)cc2)CC1	17.54	0.879
Cc1cc(NC(=O)C2CCN(c3nnc(C)c(C)c3C#N)CC2)no1	4.934	-12.4
CNc1cccc(C2CCN(C(C)=O)CC2)n1	2.863	19.04
CC(Cn1cccn1)NCc1nc(-c2ccsc2)no1 (stereo not drawn)	-26.94	-9.556
Cc1c(Br)cccc1C(=O)NCC1CCCNC1.Cl (stereo not drawn)	-10.39	2.528
CCCC(NC(=O)c1ccc(OC)cc1F)c1nnn[nH]1 (stereo not drawn)	4.47	14.65
CNC(=O)c1ccc(CN(C)C(=O)Nc2nnc(C(C)C)s2)cc1	6.373	-5.157
CC(C)(CN1CCCC1)CN1CCC(Cn2cc(CCO)nn2)CC1	-20.98	-26.97
COc1cccc(CN2CCC3(CCN(c4ncc(C)cn4)CC3)C2)c1.O=C(O)C(F)(F)F	-18.2	23.56

For reference, 7 entries once more:

compound	A	B
OCCN1CCCCC1C1OCCO1 (stereo not drawn)	-3.074	-1.739
Cc1ccc(C(=O)NCc2ccc(N3CCNC(=O)C3)c(F)c2)cc1	-15.62	-1.433
c1cc(-c2nnc(C3CCCN(CC4CCCCC4)C3)o2)ccn1 (stereo not drawn)	11.57	-1.931
Cc1nc(C2CCCNC2)cc(N(Cc2c(C)nn(C)c2C)C2CC2)n1 (stereo not drawn)	-0.3449	-50.91
OC(CNC1CCOCC1)c1ccc(Cl)c(F)c1 (stereo not drawn)	-12.52	-
C[C@H](NS(C)(=O)=O)C(=O)NCc1cc(-c2ccco2)n(CC(F)(F)F)n1	-0.166	-1.854
Cc1ccc(NC2CCN(C(=O)COCC3CC3)CC2)nn1	-15.21	-35.46

The values are deposited in ChEMBL (CHEMBL3988442, “University of Dundee, Small-Polar-MMV Screening Library” (2021)).